# Assay results

From PubChem BioAssay record AID504749 (NCATS, 2011).

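Malaria parasite (P. falciparum) lines kept in red blood cells; parasite DNA is measured by SYBR Green fluorescence after lysis, 72 h after compound addition. Each compound was titrated across a series from about 0.000037 to 29 µM. The number is the fitted AC50, the concentration giving a half-maximal change in signal; a lower value means higher potency, whether the curve shows a decrease or an increase. Calls follow the curve class and fit quality: every row here is inconclusive, covering signal-raising curves and weak, poorly fitted, partial or highest-dose-only inhibition curves.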

Values are in nM. All entries here are filed as inconclusive. Only part of the assay is shown, chiefly results filed as inconclusive. A potency from a partial, single-point or poor curve is only a rough figure. The first word of each remark tells which way the curve ran; it can be opposite to the aim of the assay.

* NC(N)=NN=C(/C=C/c1ccc([N+](=O)[O-])o1)/C=C/c1ccc([N+](=O)[O-])o1 [TAB113] : Potency 10000 nM (inhibitor, single point)
* NC(N)=NN=C(/C=C/c1ccc([N+](=O)[O-])o1)/C=C/c1ccc([N+](=O)[O-])o1 [CP297] : Potency 15101 nM (inhibitor, single point)
* NC(N)=NN=C(/C=C/c1ccc([N+](=O)[O-])o1)/C=C/c1ccc([N+](=O)[O-])o1 [CP203] : Potency 15101 nM (inhibitor, single point)
* NC(N)=NN=C(/C=C/c1ccc([N+](=O)[O-])o1)/C=C/c1ccc([N+](=O)[O-])o1 [JCK] : Potency 11220 nM (inhibitor, single point)
* NC(N)=NN=C(/C=C/c1ccc([N+](=O)[O-])o1)/C=C/c1ccc([N+](=O)[O-])o1 [CP215] : Potency 15101 nM (inhibitor, single point)
* NC(N)=NN=C(/C=C/c1ccc([N+](=O)[O-])o1)/C=C/c1ccc([N+](=O)[O-])o1 [CP238] : Potency 14125 nM (inhibitor, single point)
* NC(N)=NN=C(/C=C/c1ccc([N+](=O)[O-])o1)/C=C/c1ccc([N+](=O)[O-])o1 [SC27B] : Potency 15848 nM (inhibitor, single point)
* NC(N)=NN=C(/C=C/c1ccc([N+](=O)[O-])o1)/C=C/c1ccc([N+](=O)[O-])o1 [CP265] : Potency 17782 nM (inhibitor, single point)
* NC(N)=NN=C(/C=C/c1ccc([N+](=O)[O-])o1)/C=C/c1ccc([N+](=O)[O-])o1 [ATS189] : Potency 17782 nM (inhibitor, single point)
* NC(N)=NN=C(/C=C/c1ccc([N+](=O)[O-])o1)/C=C/c1ccc([N+](=O)[O-])o1 [PC15] : Potency 11220 nM (inhibitor, single point)
* NC(N)=NN=C(/C=C/c1ccc([N+](=O)[O-])o1)/C=C/c1ccc([N+](=O)[O-])o1 [GB4] : Potency 4776 nM (inhibitor, partial curve, poor fit)
* NC(N)=NN=C(/C=C/c1ccc([N+](=O)[O-])o1)/C=C/c1ccc([N+](=O)[O-])o1 [CP252] : Potency 14125 nM (inhibitor, single point)
* CCOC(=O)C(CCc1ccccc1)NC(C)C(=O)N1Cc2cc(OC)c(OC)cc2CC1C(=O)O (centres undefined) [ICS] : Potency 11220 nM (inhibitor, single point)
* CCOC(=O)C(CCc1ccccc1)NC(C)C(=O)N1Cc2cc(OC)c(OC)cc2CC1C(=O)O (centres undefined) [ATS95] : Potency 5012 nM (inhibitor, partial curve)
* CCOC(=O)C(CCc1ccccc1)NC(C)C(=O)N1Cc2cc(OC)c(OC)cc2CC1C(=O)O (centres undefined) [JCK] : Potency 17782 nM (inhibitor, single point)
* CCOC(=O)C(CCc1ccccc1)NC(C)C(=O)N1Cc2cc(OC)c(OC)cc2CC1C(=O)O (centres undefined) [CP217] : Potency 11220 nM (inhibitor, partial curve)
* CCOC(=O)C(CCc1ccccc1)NC(C)C(=O)N1Cc2cc(OC)c(OC)cc2CC1C(=O)O (centres undefined) [GB4] : Potency 16944 nM (inhibitor, single point)
* CCOC(=O)C(CCc1ccccc1)NC(C)C(=O)N1Cc2cc(OC)c(OC)cc2CC1C(=O)O (centres undefined) [AA1029] : Potency 7080 nM (inhibitor, partial curve)
* CCOC(=O)C(CCc1ccccc1)NC(C)C(=O)N1Cc2cc(OC)c(OC)cc2CC1C(=O)O (centres undefined) [HB3] : Potency 12589 nM (inhibitor, partial curve)
* O=P1(N(CCCl)CCCl)NCCCO1 (centres undefined) [CP256] : Potency 3981 nM (inhibitor, single point)
* OC[C@@H](O)C(O[C@@H]1O[C@@H](CO)[C@H](O)[C@H](O)[C@H]1O)[C@H](O)[C@@H](O)CO (some centres undefined) [C2A] : Potency 11220 nM (inhibitor, single point)
* CCC1=C[C@@H]2CN(C1)Cc1c([nH]c3ccccc13)[C@@](C(=O)OC)(c1cc3c(cc1OC)N(C)[C@@H]1[C@@](O)(C(=O)OC)[C@H](OC(C)=O)[C@]4(CC)C=CCN5CC[C@]31[C@@H]54)C2 [PC49] : Potency 10000 nM (activator)

Repeated from the top, 2 entries:

For NC(N)=NN=C(/C=C/c1ccc([N+](=O)[O-])o1)/C=C/c1ccc([N+](=O)[O-])o1 [TAB113] the result was Potency 10000 nM (inhibitor, single point).
For NC(N)=NN=C(/C=C/c1ccc([N+](=O)[O-])o1)/C=C/c1ccc([N+](=O)[O-])o1 [CP297] the result was Potency 15101 nM (inhibitor, single point).